# Experimental data published in PubChem BioAssay AID1671190 (National Center for Advancing Translational Sciences (NCATS), 2021).
# Protein sequences, listed by entry. Tags and fused reporters are not part of them. Lines headed by an entry give the natural chain unless they say otherwise; changes in a name come on top.
# UniProt P18054: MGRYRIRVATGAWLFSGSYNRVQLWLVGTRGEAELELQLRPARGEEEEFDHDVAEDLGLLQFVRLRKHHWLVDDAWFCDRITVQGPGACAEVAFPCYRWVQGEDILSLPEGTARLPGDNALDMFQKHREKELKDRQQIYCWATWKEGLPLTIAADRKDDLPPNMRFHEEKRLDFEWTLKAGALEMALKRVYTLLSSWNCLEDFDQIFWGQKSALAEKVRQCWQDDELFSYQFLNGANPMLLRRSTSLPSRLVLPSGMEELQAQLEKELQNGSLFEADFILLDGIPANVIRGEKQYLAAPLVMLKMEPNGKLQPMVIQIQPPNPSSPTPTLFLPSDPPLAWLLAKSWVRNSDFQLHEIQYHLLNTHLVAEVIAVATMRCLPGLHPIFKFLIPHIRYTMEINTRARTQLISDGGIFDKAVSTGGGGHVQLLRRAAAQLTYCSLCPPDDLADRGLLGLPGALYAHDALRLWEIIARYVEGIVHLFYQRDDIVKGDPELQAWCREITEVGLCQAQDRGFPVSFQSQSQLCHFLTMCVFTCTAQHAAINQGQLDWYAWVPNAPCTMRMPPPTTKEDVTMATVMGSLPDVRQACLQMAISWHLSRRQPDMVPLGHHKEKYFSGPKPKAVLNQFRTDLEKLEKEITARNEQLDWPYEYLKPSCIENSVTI
# In all, about 580,000 compounds went through this assay and about 6,100 (1.1%) were called active. Inconclusive means that the source gave no clear call. Such entries were picked first, then a sample of the others. Calls come from the whole dose curve; as a rule, active = well fitted inhibition curve with a large enough effect; inconclusive = small, poorly fitted or top-dose-only effect, or another doubt; inactive = no such curve, though single readings can be large or run the other way. Potencies beside an inconclusive call are fits to weak or partial responses and may not hold up.
# Molecular target: Polyunsaturated fatty acid lipoxygenase ALOX12 (Homo sapiens) (UniProt P18054)
# Test: Primary qHTS assay for inhibitors of human arachidonate 12S-lipoxygenase (ALOX12): Round 2
# Conditions: purified 12hLO, xylenol orange hydroperoxide absorbance; activity change, negative = inhibition: at 108 µM (top of the series) unless noted
# Summary of the method: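 Hydroperoxide product was detected by ferrous iron/xylenol orange as the 573 to 405 nm absorbance ratio. Arachidonic acid at 40 uM (final) was turned over for 30 min at room temperature by 150 nM human 12hLO, pH 7.0 Hepes buffer, after 15 min compound preincubation.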
# % is set by controls: 0 for no effect and ±100 for the full control effect; potency is the fitted concentration of half-maximal effect.
Compound,Potency,"activity change, negative = inhibition"
O=C(NCC(c1cccs1)N1CCOCC1)c1ccccc1NS(=O)(=O)c1cccc([N+](=O)[O-])c1 (stereo unspecified),"inconclusive: 50.1 µM [inhibitor, partial curve, poor fit]",
O=C(OC(C(=O)NCc1ccco1)c1ccc(Cl)cc1)c1cccs1 (stereo unspecified),"inconclusive: 44.7 µM [inhibitor, partial curve, poor fit]",
COc1ccc(CC(=O)N(CCC2=CCCCC2)c2c(N)n(Cc3ccccc3)c(=O)[nH]c2=O)cc1,"inconclusive: 7.08 µM [inhibitor, partial curve, poor fit]",
CCOc1cc(CNC(=O)c2ncoc2-c2ccc(C)s2)cc(OCC)c1OCC,,inactive: -26%
CC(=O)c1ccc(O)c(CC=C(C)C)c1O,"inconclusive: 89.1 µM [inhibitor, single point]",
CCCCCCCn1c(SCC(=O)O)nc2c1c(=O)[nH]c(=O)n2C,"inconclusive: 126 µM [inhibitor, partial curve, poor fit]",
COC(=O)c1cccc(CN2C(=O)C(C)Sc3cc(Cl)ccc32)c1 (stereo unspecified),"inconclusive: 50.1 µM [inhibitor, partial curve, poor fit]",
N#Cc1ccc(NC(=O)CCC(=O)c2ccc3c(c2)CCC3)cc1,"inconclusive: 39.8 µM [inhibitor, partial curve, poor fit]",
COc1cc(OC)cc(C(=O)Nc2cc3c(cc2N2CCCCC2)n(C)c(=O)n3C)c1,,inactive: -21.4%
CN(Cc1ccccc1)c1nc2c(c(=O)n(Cc3ccccc3Cl)c(=O)n2C)n1C,"inconclusive: 70.8 µM [inhibitor, single point]",
CC(=O)Nc1ccc(Nc2nc3ccccc3nc2NS(=O)(=O)c2ccccc2)cc1,"inconclusive: 126 µM [inhibitor, single point]",
Cn1c2ccccc2c2ncn(Cc3ccc(F)cc3)c(=O)c21,"inconclusive: 126 µM [inhibitor, single point]",
Cc1cc2oc(C(=O)N3CCOC34CCN(C)CC4)cc(=O)c2cc1C,,inactive: -12.5%
CCc1ccccc1NC(=O)Cn1c(=O)n(Cc2ccco2)c(=O)c2ccccc21,"inconclusive: 112 µM [inhibitor, partial curve, poor fit]",
COc1ccc2c(c1)CN(Cc1ccccc1)CC[C@H]1COC(=O)N21,,inactive: 12.4% [at 176 µM]
CCCCc1ccc(CC(=O)NCc2coc(-c3cccs3)n2)cc1,,inactive: -38.6%
CC(C)c1nc(C2Cc3ccccc3N2S(=O)(=O)c2cn(C)cn2)no1 (stereo unspecified),"inconclusive: 39.8 µM [inhibitor, partial curve, poor fit]",
Cc1cccc(NC(=O)CC23CC4CC(C2)CC(n2nnc(C)n2)(C4)C3)c1,"inconclusive: 112 µM [inhibitor, single point]",
Cc1cc2c(-c3ccccc3O)nc(-c3c(C)noc3C)cc2[nH]1,"inconclusive: 44.7 µM [inhibitor, partial curve]",
CO[C@H]1[C@H](NC(=O)c2ccco2)c2ccccc2C12CCN(Cc1cnc(N(C)C)s1)CC2,"inconclusive: 89.1 µM [inhibitor, partial curve, poor fit]",
CCc1ccc(CN(C(=O)c2ccco2)C2CCS(=O)(=O)C2)cc1 (stereo unspecified),,inactive: 5.65%
Cc1ccc(CNC(=O)O[C@H]2CC[C@@]34CCCN3C(=O)CCC[C@H]4[C@H]2Cc2ccccc2)o1,,inactive: -20.9%

# Two records drawn at random from the list so far:
Compound,Potency,"activity change, negative = inhibition"
Cn1c2ccccc2c2ncn(Cc3ccc(F)cc3)c(=O)c21,"inconclusive: 126 µM [inhibitor, single point]",
COC(=O)c1cccc(CN2C(=O)C(C)Sc3cc(Cl)ccc32)c1 (stereo unspecified),"inconclusive: 50.1 µM [inhibitor, partial curve, poor fit]",

# Next structures:

Compound,Potency,"activity change, negative = inhibition"
N#Cc1ccc(S(=O)(=O)N2CCCCCNC(=O)CC2c2ccccc2)cc1 (stereo unspecified),"inconclusive: 50.1 µM [inhibitor, single point]",
C=C(C(=O)c1ccccc1)C(C(=C)C(=O)c1ccccc1)c1ccc(OC)cc1,,inactive: 166%
C#CCN1CC(COCCCC)Oc2cccc(F)c2S1(=O)=O (stereo unspecified),"inconclusive: 89.1 µM [inhibitor, partial curve, poor fit]",
Cc1cc(NC(=O)COC(=O)CC2CCCC2)c([N+](=O)[O-])cc1C,,inactive: 0.455%
CC1(C)C(=O)NCCN1C(=O)CCCC(=O)O,,inactive: -1.2%
Cc1cc(C)c(C)c(S(=O)(=O)NC2CCN(c3ccc(=O)n(CC4CC4)n3)CC2)c1C,"inconclusive: 50.1 µM [inhibitor, partial curve, poor fit]",
COc1ccc(NC(=S)NC(NC(=O)C(C)C)C(Cl)(Cl)Cl)c([N+](=O)[O-])c1 (stereo unspecified),"inconclusive: 89.1 µM [inhibitor, partial curve, poor fit]",
COc1cc(/C=C/c2sc3ccccc3[n+]2CCCS(=O)(=O)[O-])ccc1O,"inconclusive: 44.7 µM [inhibitor, partial curve, poor fit]",
CCCc1nc2c(C)cc(Br)cn2c1Cc1cccc(Cl)c1,"inconclusive: 70.8 µM [inhibitor, partial curve, poor fit]",
O=C1CCC(C(=O)OC2CCOC2=O)=NN1 (stereo unspecified),"inconclusive: 56.2 µM [inhibitor, partial curve, poor fit]",
Cc1ccc(S(=O)(=O)Oc2ccc(C3C4=C(CCCC4=O)N(CCC(=O)O)C4=C3C(=O)CCC4)cc2Cl)cc1,"inconclusive: 44.7 µM [inhibitor, partial curve]",
Cc1nn(C)c(Cl)c1NC(=O)OCc1ccc(Cl)cc1Cl,,inactive: -9.02%
Cc1cc(O)ccc1C1CCCCC1,"inconclusive: 56.2 µM [inhibitor, partial curve, poor fit]",
CC(OC(=O)C12CCC(=O)N1c1ccccc1S2)C(=O)Nc1cccc(Cl)c1 (stereo unspecified),"inconclusive: 141 µM [inhibitor, single point]",
Cc1cnc(CN(C)C(=O)C2CCCN(C3CCN(Cc4ccncc4)CC3)C2)[nH]1 (stereo unspecified),,inactive: 66.1%
CC(C)C(=O)N1CCN(c2ccccc2NC(=S)NC(=O)c2cccs2)CC1,"inconclusive: 17.8 µM [inhibitor, partial curve, poor fit]",
O=C(COC(=O)c1cc([N+](=O)[O-])ccc1N1CCOCC1)Nc1cccc(F)c1,"inconclusive: 0.158 µM [inhibitor, full curve, poor fit]",
CC1(c2nnnn2-c2ccc3c(c2)OCCO3)CCC(=O)N1CCOc1ccccc1 (stereo unspecified),,inactive: -7.59%
Cc1ccc(C(=O)N2CCC(n3cc(-c4nc(C5CC5)no4)nn3)C2)cc1C (stereo unspecified),"inconclusive: 56.2 µM [inhibitor, partial curve, poor fit]",
O=C(NCc1coc(-c2cccs2)n1)c1ccc(F)cc1F,"inconclusive: 50.1 µM [inhibitor, partial curve, poor fit]",
CC(C)c1ccc(C2Sc3ccccc3NC3=C2C(=O)c2ccccc23)cc1 (stereo unspecified),"inconclusive: 89.1 µM [inhibitor, single point]",
CN(C(=S)Nc1ccc(SC(F)F)cc1)c1ccc(O)cc1,"inconclusive: 44.7 µM [inhibitor, partial curve, poor fit]",

Compound,Potency,"activity change, negative = inhibition"
CNC(=S)NNC(=O)c1ccc(=O)n(Cc2ccc(Cl)cc2Cl)c1,,inactive: 7.04%
COc1cccc(S(=O)(=O)N2CCN(Cc3nc4cccnc4n3-c3cccc(C)c3)CC2)c1,"inconclusive: 44.7 µM [inhibitor, partial curve, poor fit]",
CCSc1nnc(NC(=O)CSc2nnc(Cc3cccn3C)n2CCc2ccccc2)s1,,inactive: 5.14%
CCSc1nnc(NC(=O)c2ccc3ccccc3n2)s1,,inactive: 2.35%
NC(=O)CNC(=O)C1CCCc2c1[nH]c1ccc(Cl)cc21 (stereo unspecified),"inconclusive: 44.7 µM [inhibitor, partial curve, poor fit]",
O=C(N(c1ccccn1)c1ccccn1)C12CC3CC(CC(C3)C1)C2,"inconclusive: 89.1 µM [inhibitor, single point]",
CC(C)(C)C(=O)N1CCN(c2nc3ccccc3o2)CC1,,inactive: 6.94%
CC1(C)CC(=O)C2=C(C1)OC(N)=C(C#N)C2c1cc2c(cc1[N+](=O)[O-])OCO2 (stereo unspecified),"inconclusive: 56.2 µM [inhibitor, partial curve, poor fit]",
O=C(NC1CCSC1=O)C1CC(=O)N(c2ccc(F)cc2)C1 (stereo unspecified),"inconclusive: 44.7 µM [inhibitor, partial curve, poor fit]",
O=C(c1c(F)cccc1F)N1CCCC2(C1)NC(=O)N(Cc1cccc(Cl)c1)C2=O (stereo unspecified),"inconclusive: 15.8 µM [inhibitor, full curve]",
O=C(CSC1=NCCS1)Nc1nc(-c2ccccc2)cs1,"inconclusive: 3.55 µM [inhibitor, full curve, poor fit]",
COc1ccc(C(C)(O)c2nc(-c3ccncc3)cs2)cc1 (stereo unspecified),"inconclusive: 112 µM [inhibitor, partial curve, poor fit]",
CC1=CC(C)[C@@H]2COC(c3ccc(O)cc3)[C@H]1C2C (stereo partly specified),,inactive: -18.7%
CC(=O)Nc1cccc(-c2csc(Nc3cccc(O)c3)n2)c1,"inconclusive: 7.08 µM [inhibitor, full curve, poor fit]",
CCCNC(=O)NC(=O)CN1CCCC1,,inactive: 1.33%
O=C(Nc1cc(Cl)ccc1Cl)c1cc(S(=O)(=O)NCCc2ccccc2)ccc1F,,inactive: -0.668%
CC(O)(c1ccc(F)c(F)c1)c1nc(-c2csc3ccccc23)cs1 (stereo unspecified),active: 44.7 µM,
Cc1ccc(CNC(=O)NCCNc2ncccn2)cc1,,inactive: -6.45%
Cc1ccc(CN2COc3ccc4c(C)cc(=O)oc4c3C2)cc1,,inactive: 3.36%
CC1=C(CO)C(=O)OC([C@@H](C)C2CC[C@H]3C4C[C@H]5O[C@]56[C@@H](O)C=CC(=O)[C@]6(C)C4CC[C@]23C)C1 (stereo partly specified),"inconclusive: 70.8 µM [inhibitor, single point]",
Cc1ccc(C(=O)N(Cc2ccco2)Cc2sccc2C)cc1,"inconclusive: 56.2 µM [inhibitor, partial curve, poor fit]",
COC(=O)c1sc(=S)n(-c2cccc(C(F)(F)F)c2)c1N,"inconclusive: 31.6 µM [inhibitor, partial curve, poor fit]",
